Data as given in patent US20140005119A1, “COMPOSITIONS AND METHODS FOR INHIBITING THE ACTIVITY OF P110a MUTANT PROTEINS” (Case Western Reserve University, priority 2012, published 2014).
No constants are given. Whether binding was seen depends on the method and setting. In cells and extracts the contact can be indirect. Some entries that bind do so weakly or less than the wild type.

Amino acid sequences for entries named in this document (tags omitted). A change or cut given only in a name is not applied to a line headed by its entry. Chains listed by the source or under a name are the forms on record and can include a tag or linker.
IRS1D (MYC-tagged IRS1 devoid of both AA 607-623 and AA 936-962) (P35568, form named): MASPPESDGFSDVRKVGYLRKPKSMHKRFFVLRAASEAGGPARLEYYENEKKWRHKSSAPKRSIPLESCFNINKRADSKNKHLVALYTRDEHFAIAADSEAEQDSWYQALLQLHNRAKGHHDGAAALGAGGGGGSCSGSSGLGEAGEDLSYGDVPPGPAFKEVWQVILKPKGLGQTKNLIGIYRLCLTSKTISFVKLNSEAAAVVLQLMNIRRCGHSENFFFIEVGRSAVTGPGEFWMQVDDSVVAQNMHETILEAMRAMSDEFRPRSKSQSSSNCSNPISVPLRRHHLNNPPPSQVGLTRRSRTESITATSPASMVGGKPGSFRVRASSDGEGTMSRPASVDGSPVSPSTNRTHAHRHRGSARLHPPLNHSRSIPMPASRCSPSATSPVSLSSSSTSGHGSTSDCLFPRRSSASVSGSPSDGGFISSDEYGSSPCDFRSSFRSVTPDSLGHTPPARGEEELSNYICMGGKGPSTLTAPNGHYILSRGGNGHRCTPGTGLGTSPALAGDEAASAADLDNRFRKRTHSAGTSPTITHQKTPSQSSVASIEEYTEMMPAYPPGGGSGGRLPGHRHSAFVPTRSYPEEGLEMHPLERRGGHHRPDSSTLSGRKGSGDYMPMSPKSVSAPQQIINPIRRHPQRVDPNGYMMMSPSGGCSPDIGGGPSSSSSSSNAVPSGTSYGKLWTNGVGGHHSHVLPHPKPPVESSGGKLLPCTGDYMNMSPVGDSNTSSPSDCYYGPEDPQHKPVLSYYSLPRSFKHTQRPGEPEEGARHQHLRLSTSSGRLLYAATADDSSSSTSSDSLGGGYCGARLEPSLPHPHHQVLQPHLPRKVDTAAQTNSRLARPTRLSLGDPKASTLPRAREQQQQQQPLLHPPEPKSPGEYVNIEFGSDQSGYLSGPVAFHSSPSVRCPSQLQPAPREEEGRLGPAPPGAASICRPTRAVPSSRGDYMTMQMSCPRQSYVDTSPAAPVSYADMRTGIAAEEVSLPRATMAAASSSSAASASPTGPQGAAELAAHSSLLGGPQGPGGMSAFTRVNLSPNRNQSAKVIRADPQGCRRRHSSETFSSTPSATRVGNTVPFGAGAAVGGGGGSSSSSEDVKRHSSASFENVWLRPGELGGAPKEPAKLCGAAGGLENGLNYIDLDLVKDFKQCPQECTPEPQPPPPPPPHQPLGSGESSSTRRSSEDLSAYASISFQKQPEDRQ
UniProt P27986: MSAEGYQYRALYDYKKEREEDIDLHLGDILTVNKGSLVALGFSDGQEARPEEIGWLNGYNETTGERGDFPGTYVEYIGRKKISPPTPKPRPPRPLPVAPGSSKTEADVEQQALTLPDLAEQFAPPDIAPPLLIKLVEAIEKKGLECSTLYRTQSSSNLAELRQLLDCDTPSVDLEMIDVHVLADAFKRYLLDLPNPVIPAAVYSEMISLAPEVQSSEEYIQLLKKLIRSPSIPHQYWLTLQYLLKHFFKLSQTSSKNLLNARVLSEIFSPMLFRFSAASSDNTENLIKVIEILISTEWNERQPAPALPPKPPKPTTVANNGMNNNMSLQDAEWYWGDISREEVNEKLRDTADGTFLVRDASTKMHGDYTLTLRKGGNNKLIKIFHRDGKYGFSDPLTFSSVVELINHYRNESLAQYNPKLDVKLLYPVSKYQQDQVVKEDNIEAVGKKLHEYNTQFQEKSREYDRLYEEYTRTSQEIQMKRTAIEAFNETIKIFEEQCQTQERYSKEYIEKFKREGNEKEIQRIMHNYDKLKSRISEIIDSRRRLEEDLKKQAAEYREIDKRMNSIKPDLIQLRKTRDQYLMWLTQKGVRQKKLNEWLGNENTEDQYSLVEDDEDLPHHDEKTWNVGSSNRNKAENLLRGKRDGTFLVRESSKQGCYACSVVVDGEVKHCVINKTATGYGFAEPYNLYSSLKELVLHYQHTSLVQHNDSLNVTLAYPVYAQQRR

Target: IRS1D (MYC-tagged IRS1 devoid of both AA 607-623 and AA 936-962) (UniProt P35568)
Experiment: co-transfection in HEK293 cells with HA-tagged p85, co-IP

binding: binds
Substance: HA-tagged p85 (from UniProt P27986 1-724)
